# Source: patent US20200197532A1
# No constants are given. Whether binding was seen depends on the method and setting. A result given as binding can be weak or reduced; the word gives no strength.
# B1: E4 monoclonal antibody to type II collagen (MabCII, clone E4-D4) (antibody, mouse IgG2a, kappa, V domains shown)
# VH: EVQLVESGGGLVKPGGSLKVSCEASGFTFSDYGMHWVRQAPEKGLEWVAYISSVSSTIYYADTVEGRFTISRDNVRNTLFLQMTSLRSEDTAMYYCAREGWLPLFAFWGQGTLVTVSA
# VL: DIVLTQSHKFMSTSVGDRVSITCKASQDVSITVAWYQQKPGQSPKLLIYSASYRNPGVPDRFTGSGSGTDFNFTISTVQAEDLAVYYCQQYYIIPWTFGGGTKLEFKR
# Target: Pig type II collagen (pig)
# Experiment: ELISA on type II collagen
binder,measurement,value
B1,binding,binds
